Experimental data taken from patent publication US20260219277A1, “NOVEL FLUORESCENT COMPOUND, AND COMPOSITION FOR DETECTING GINGIPAIN, COMPOSITION FOR DIAGNOSING PORPHYROMONAS GINGIVALIS INFECTION, OR ANTIBACTERIAL COMPOSITION AGAINST PORPHYROMONAS GINGIVALIS USING SAME” (priority 2023, published 2026).
At least one structure is not confirmed: it was looked up by name or label, or the drawing left a doubt.

Amino acid sequences for entries named in this document (tags omitted). Residues count along the entry.
UniProt P28784, 228-991: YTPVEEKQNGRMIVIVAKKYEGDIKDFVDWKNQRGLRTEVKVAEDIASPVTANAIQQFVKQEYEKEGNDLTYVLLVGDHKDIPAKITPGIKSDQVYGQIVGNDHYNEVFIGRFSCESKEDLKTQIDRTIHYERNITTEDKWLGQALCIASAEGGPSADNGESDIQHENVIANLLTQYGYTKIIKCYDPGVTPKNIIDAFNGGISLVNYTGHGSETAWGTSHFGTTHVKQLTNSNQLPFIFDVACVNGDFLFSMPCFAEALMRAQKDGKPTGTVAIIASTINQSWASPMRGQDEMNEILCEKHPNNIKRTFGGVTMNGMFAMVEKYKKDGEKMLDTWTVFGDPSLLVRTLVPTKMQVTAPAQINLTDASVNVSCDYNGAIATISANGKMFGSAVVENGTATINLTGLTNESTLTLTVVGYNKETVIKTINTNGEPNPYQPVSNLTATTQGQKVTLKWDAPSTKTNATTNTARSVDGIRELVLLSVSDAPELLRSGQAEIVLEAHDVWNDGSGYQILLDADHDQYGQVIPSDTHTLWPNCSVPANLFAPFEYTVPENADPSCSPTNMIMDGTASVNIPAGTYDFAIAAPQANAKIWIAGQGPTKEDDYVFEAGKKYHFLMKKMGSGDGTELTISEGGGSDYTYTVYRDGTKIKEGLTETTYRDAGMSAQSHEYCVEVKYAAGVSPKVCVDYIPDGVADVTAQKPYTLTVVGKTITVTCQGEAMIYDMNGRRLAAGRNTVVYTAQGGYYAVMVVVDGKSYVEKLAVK

How the values were obtained:
[1] = system: gingipain; test: Fibrinogen degradation by P. gingivalis conditioned medium (gingipain inhibitory effect); type: biochemical; details: 100 μM; 10 minutes of culture with P.g. C.M.; without inhibitor 41.1±1.7%
[2] = system: Kgp; test: Fluorescence spectrum after culture with Kgp; type: binding, P. gingivalis
Procedure: (§1) Specifically, after the gingipains (Kgp and Rgp) secreted from P. gingivalis, calpain, which is a cysteine protease, and trypsin, which is a serine protease, were cultured with fluorescent compound DTC630 (10 μM), a fluorescence spectrum was measured (λex=425 nm, λem=450-700 nm).
(§2) In addition, the degree of fluorescence reaction of fluorescent compound DTC630 (1, 3, 10, 30, and 100 μM) was measured at each concentration for Kgp, Rgp, calpain, and trypsin (final concentration: 0.3 mg/mL).

[3] = target: Rgp (Porphyromonas gingivalis, UniProt P28784); test: Fluorescence spectrum after culture with Rgp; type: binding, P. gingivalis
Procedure: as §1, §2

[4] = system: P. gingivalis; test: P. gingivalis-selective labeling in tooth of periodontitis patient; parameters: species or system Porphyromonas gingivalis; details: 10 μM
[5] = 10 μM, λex=425 nm, λem=450-700 nm
[6] = 1, 3, 10, 30, and 100 μM, protein 0.3 mg/mL

CN(C)c1ccc(-c2ccc(/C=C(\C#N)c3nnn[nH]3)cc2)cc1 [DTC630, (E)-3-(4′-(dimethylamino)-[1,1′-biphenyl]-4-yl)-2-(1H-tetrazol-5-yl) acrylonitrile]
fibrinogen degradation [1]: 68.8±13.8% | fluorescence increase for Kgp compared to PBS ([2]; 10 μM, λex=425 nm): 221±4 fold | detection of Kgp (fluorescence compared to PBS), in words [2, 5]: fluorescence increase | degree of fluorescence reaction at each concentration for Kgp [2, 6]: increase in fluorescence by concentration | fluorescence increase for Rgp compared to PBS ([3]; 10 μM, λex=425 nm): 166±4 fold | detection of Rgp (fluorescence compared to PBS), in words [3, 5]: fluorescence increase | degree of fluorescence reaction at each concentration for Rgp [3, 6]: increase in fluorescence by concentration | labeling of P. gingivalis in oral biofilm ([4]; oral biofilm scraped from tooth of periodontitis patient): selectively labels P. gingivalis | fluorescence staining of P. gingivalis on tooth surface ([4]; tooth of a periodontitis patient): identified by fluorescence staining
